Article PMC12040169 (PLOS Biology, 2025)
This is one part of the list.

What follows are molecules tested on T1, CTL2-GFP (C. trachomatis L2/434/Bu, GFP-expressing). Settings: bulk GFP, single well; 28.5 h, 10 µM; inhibitor.
T1 construct: L2/434/Bu, GFP-expressing
Set-up: species or system HeLa; Intracellular C. trachomatis growth in HeLa cells, bulk GFP fluorescence relative to DMSO

SMILES	% of control remaining [%]
CCC1CCCCN1C(=O)c1cccc(C)n1 (stereo not drawn) [CBK076750]	112.959
COc1ccc(S(=O)(=O)N2CCOCC2)cc1C(=O)Nc1ccc2c(c1)OCO2 [CBK265548]	110.664
Cc1ccncc1C(=O)NCc1ccccc1 [CBK200193]	102.734
COc1cc(CNC2CCCc3c2cnn3C)cc(OC)c1 (stereo not drawn) [CBK304306C]	140.178
Nc1ncc(-c2ccc(C(=O)N3CCOCC3)cc2)nc1-c1cccnc1 [CBK126356]	115.086
COc1cccc(NC(=O)CC(CN2CCN(Cc3ccccn3)CC2)C(=O)O)c1 (stereo not drawn) [CBK286735]	128.826
CC(C)Nc1nc2ccccc2nc1OCCC#N [CBK115735]	109.352
COc1ccc(C(=O)NC(N2CCCCC2)C(Cl)(Cl)Cl)cc1 (stereo not drawn) [CBK087021]	100
c1coc(-c2cc(Nc3ccc4[nH]ccc4c3)ncn2)c1 [CBK090862]	97.8709
O=S(=O)(Nc1nc(CCNCCO)cs1)c1ccc(Oc2ccccc2)cc1 [CBK034632]	103.614
CCOC(=O)c1cccnc1-c1cccc(C(N)=O)c1 [CBK149239]	125.417
O=S(=O)(Nc1nccnc1N1CCN(c2ccccc2)CC1)c1ccc(F)cc1 [CBK048706]	111.794
COC(=O)CC1(C)C(=O)CCC2(C)C1=CCc1ccccc12 (stereo not drawn) [CBK006547]	123.839
O=C(CC1CCCC1)NCCn1nc(-c2cccs2)oc1=O [CBK282386]	137.031
O=[N+]([O-])c1cc(F)ccc1Oc1cccc(Cl)c1Cl [CBK002604]	107.461
CN1CCCN(c2cncc(-c3cccnc3)n2)CC1 [CBK037215]	143.554
CN(CC(=O)NNC(=O)c1cccs1)S(=O)(=O)c1ccc2ccccc2c1 [CBK267409]	117.544
COc1ncc(-c2ccc(NCCn3cc[nH]c3=O)nc2)c(OC)n1 [CBK037719]	110.31
CC1(C)CC(N(Cc2ccccc2)C(=O)Cc2ccco2)CCO1 (stereo not drawn) [CBK019561]	110.506
O=[N+]([O-])c1ccc2[nH]c3c(c2c1)CCCC3NC1CCN(CCc2ccccc2)CC1 (stereo not drawn) [CBK262874]	24.7593
CC(CNS(=O)(=O)c1ccc(N2CCCC2=O)cc1)Cn1cccn1 (stereo not drawn) [CBK304656]	108.614
Cc1ccc(-n2c(=O)[nH]cc(C(=O)Nc3cccc(Cl)c3C)c2=O)cc1C [CBK287551]	135.617
c1csc(N2CCCN(c3nccn4cnnc34)CC2)n1 [CBK305190]	104.872
CCOc1cccc(NC(=O)/C(C#N)=C\c2cc(C)n(-c3ccc4c(c3)OCO4)c2C)c1 [CBK263191]	120.969
Cc1oc2ccc(O)cc2c1C(=O)N(C)CCN1CCCCC1 [CBK282158]	128.374
Cn1cc(C2CNCCN2C(=O)c2coc3ccccc23)cn1 (stereo not drawn) [CBK304270C]	104.168

For reference, 2 of the compounds above:
SMILES	% of control remaining [%]
CC1(C)CC(N(Cc2ccccc2)C(=O)Cc2ccco2)CCO1 (stereo not drawn) [CBK019561]	110.506
O=[N+]([O-])c1ccc2[nH]c3c(c2c1)CCCC3NC1CCN(CCc2ccccc2)CC1 (stereo not drawn) [CBK262874]	24.7593

Next records follow.

SMILES	% of control remaining [%]
CS(=O)(=O)Nc1cccc(C2=NN(C(=O)CCC(=O)O)C(c3cccc(F)c3)C2)c1 (stereo not drawn) [CBK268804]	160.368
O=S(=O)(NCc1cccc(Cl)c1)c1csc2ccnc(N3CCNCC3)c12 [CBK045595C]	135.16
CCn1c(CC2CCN(C(=O)CCn3cc(C)cn3)CC2)nn(C)c1=O [CBK307584]	145.624
Cc1ccccc1-c1ccccc1CC1(C(N)=O)CCN(C(=O)c2cccc(F)c2)CC1 [CBK285726]	119.405
CC(C)c1ccc(S(=O)(=O)N2CCN(c3ccc(C#N)cc3)CC2)cc1 [CBK044404]	61.6819
CCCS(=O)(=O)NC(C)c1cnn(-c2ccc(OC)cc2)c1C (stereo not drawn) [CBK307319]	100.305
CCCc1nn(CC(=O)NC2CC2)c(=O)c2cc3ccsc3n12 [CBK284146]	111.237
O=C(Cc1c[nH]c2ccccc12)N1CCC2(CCN(C(=O)c3ccc4[nH]c(=O)[nH]c4c3)C2)C1 (stereo not drawn) [CBK131452]	100
O=C(NCc1cccnc1)C1CCCN(c2nc3c(-c4ccccc4)csc3c(=O)[nH]2)C1 (stereo not drawn) [CBK215492]	88.9283
Cc1cc(C(=O)Nc2sc(C)c(C)c2C(=O)NCc2cccnc2)no1 [CBK268134]	98.1672
CN1CCN(CCC(=O)N/N=C/c2ccsc2)CC1 [CBK261505]	100
CCOc1cc2c(cc1OCC)C(c1ccc(OC)c(O)c1)NCC2 (stereo not drawn) [CBK074443C]	119.375
Cc1noc(C)c1S(=O)(=O)NCc1ccc(C(F)(F)F)c(F)c1 [CBK062112]	91.0986
COc1ccc(CCN2C(=O)N[C@@H](CCC(=O)NC3CC3)C2=O)cc1 [CBK288001]	85.7098
COc1ccccc1CN(CC(C)(C)CN)C(=O)Nc1ccc(C)c([N+](=O)[O-])c1 [CBK026816C]	126.432
COc1ccc(Nc2cc(-c3cccc(N)c3)ncn2)c(C)c1 [CBK091035]	137.73
COc1cccc(CNCCN2CCOCC2)c1O [CBK278183C]	124.398
CC(O)CNc1nccnc1-c1cccc(CO)c1 (stereo not drawn) [CBK037056]	100
Nc1nncn1C(=O)c1ccccc1SCc1ccccc1 [CBK270120]	140.513
O=C1CCCN1CCCNc1nccnc1-c1ccc(CO)cc1 [CBK036860]	119.855
COc1ccc(NC(=O)Nc2cc3cccnc3c(Br)n2)c(C)c1 [CBK063294]	100
Cc1nnc(Sc2cccc(C(F)(F)F)n2)s1 [CBK115222]	100
CC(=O)N1CCOC(CNc2nc(C(C)(C)C)nc3c2cnn3C)C1 (stereo not drawn) [CBK307469]	118.953
CCCCNc1cc(C)nc2c(-c3ccccc3)cnn12 [CBK287792]	95.7863
CC(C)(C)OC(=O)N1CCC(OCc2cn(-c3ccc(S(C)(=O)=O)cc3)nn2)CC1 [CBK149478]	114.061
